According to paper PMC6730887, “FKBP51 and FKBP12.6—Novel and tight interactors of Glomulin” (PLoS ONE, 2019):
Like-named read-outs stand apart in the source and are kept apart here. These are yes or no findings as the source states them, for the method shown. Some binding calls cover weakened binding; strength is not graded here. Where a sequence is shown, tags or fusion partners need not be part of it.

The chains behind the UniProt entries cited, without tags or fusion partners.
UniProt P68106: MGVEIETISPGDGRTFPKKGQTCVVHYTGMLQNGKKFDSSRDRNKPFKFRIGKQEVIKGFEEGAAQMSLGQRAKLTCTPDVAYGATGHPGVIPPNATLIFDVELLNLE

T1: GST-Glmn (Glomulin) (UniProt Q92990)
T1 sequence: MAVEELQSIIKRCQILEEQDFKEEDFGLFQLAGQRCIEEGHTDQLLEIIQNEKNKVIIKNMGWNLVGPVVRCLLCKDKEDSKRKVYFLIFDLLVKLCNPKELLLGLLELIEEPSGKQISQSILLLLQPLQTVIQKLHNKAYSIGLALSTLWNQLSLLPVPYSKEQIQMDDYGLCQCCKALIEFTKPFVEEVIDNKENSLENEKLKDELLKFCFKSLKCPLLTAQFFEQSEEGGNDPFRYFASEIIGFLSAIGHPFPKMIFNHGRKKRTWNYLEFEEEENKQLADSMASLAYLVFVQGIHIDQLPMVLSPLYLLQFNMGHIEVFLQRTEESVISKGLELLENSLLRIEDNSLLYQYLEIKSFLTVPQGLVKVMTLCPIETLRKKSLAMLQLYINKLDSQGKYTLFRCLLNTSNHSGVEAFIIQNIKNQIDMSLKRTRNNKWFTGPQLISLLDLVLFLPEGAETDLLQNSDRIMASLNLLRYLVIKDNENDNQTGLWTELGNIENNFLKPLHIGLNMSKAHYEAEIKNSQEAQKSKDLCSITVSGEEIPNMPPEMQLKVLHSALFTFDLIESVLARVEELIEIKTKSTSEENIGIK

B1: His-FKBP51FK1 (1-140) (domain or fragment)
chain: MTTDEGAKNNEESPTATVAEQGEDITSKKDRGVLKIVKRVGNGEETPMIGDKVYVHYKGKLSNGKKFDSSHDRNEPFVFSLGKGQVIKAWDIGVATMKKGEICHLLCKPEYAYGSAGSLPKIPSNATLFFEIELLDFKGE
B2: His-FKBP51FK1 (aa16-140) (domain or fragment)
chain: ATVAEQGEDITSKKDRGVLKIVKRVGNGEETPMIGDKVYVHYKGKLSNGKKFDSSHDRNEPFVFSLGKGQVIKAWDIGVATMKKGEICHLLCKPEYAYGSAGSLPKIPSNATLFFEIELLDFKGE

How the values were obtained:
GST-Glmn (Glomulin) [1] = target: T1, GST-Glmn (Glomulin); assay: AlphaScreen or HTRF; competitive HTRF: unlabelled FKBP titrated against 30 nM FKBP51FK1-5-MF and 30 nM GST-Glmn with Anti GST-Tb cryptate; 20 mM HEPES, 5% glycerol, 20 mM NaCl, 10 mM DTT, pH 8.0; room temperature, 1 h; both purified
GST-Glmn (Glomulin) [2] = target: T1, GST-Glmn (Glomulin); assay: as above; remark: listed apart in the source

Molecule	binding (GST-Glmn (Glomulin) [1])	binding (GST-Glmn (Glomulin) [2])
His-FKBP12 (from UniProt P62942 1-108)	binds weakly	
His-FKBP12.6 (from UniProt P68106 1-108)	binds	
B1		binds
B2		binds
